Literature values as cited in patent US10525060B2, “HCK as a therapeutic target in MYD88 mutated diseases” (Dana-Farber Cancer Institute, Inc., priority 2016, dated 2020).
For at least one compound, name, drawing or mass did not settle the structure.

Tested on: WM
Conditions: cited from earlier work

Question: Which “responses in previously treated patients” value does the source give for C=CC(=O)N1CCC[C@@H](n2nc(-c3ccc(Oc4ccccc4)cc3)c3c(N)ncnc32)C1 [Ibrutinib] here?
Answer: 91%
